Data from the supplement of paper PMC6078165.

Tested on: MDAMB468
Assay: relative JC-1 red fluorescence (viability) vs pre-drug, coculture with fibroblast (fraction); higher = more viable cancer cells
Protocol: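 JC-1 labelled TNBC cells cocultured 1:1 (1,500 cells each) with CellTrace Violet stained primary or stromal fibroblasts in 384-well plates in FluoroBrite medium, treated with one of 42 anticancer drugs at 0.1, 1, 10 or 100 uM. JC-1 red fluorescence (mitochondrial integrity in cancer cells only) was read by plate reader every 8 h for 72 h. Values are normalised to each well's pre-drug value. The stock of one drug was tenfold lower, so its dose labels may be too high.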

CO[C@H]1C[C@@H]2CC[C@@H](C)[C@@](O)(O2)C(=O)C(=O)N2CCCC[C@H]2C(=O)O[C@H]([C@H](C)C[C@@H]2CC[C@@H](O)[C@H](OC)C2)CC(=O)[C@H](C)/C=C(\C)[C@@H](O)[C@@H](OC)C(=O)[C@H](C)C[C@H](C)/C=C/C=C/C=C/1C [Rapamycin]
relative JC-1 red fluorescence
Details	8 h	16 h	24 h	32 h	40 h	48 h	56 h	64 h	72 h
10 µM, coculture fibroblast: C12385	0.975	0.958	0.8839	0.833	0.872	0.901	0.839	0.962	0.9702
10 µM, coculture fibroblast: H6013	0.83	0.839	0.828	0.884	0.895	0.923	0.917	0.917	0.896
10 µM, coculture fibroblast: H6019	0.8521	0.8	0.784	0.761	0.754	0.772	0.741	0.744	0.743
10 µM, coculture fibroblast: H6076	0.9006	0.9626	0.8678	0.8526	0.748	0.701	0.656	0.631	0.677
10 µM, coculture fibroblast: H6231	0.7992	0.789	0.947	0.966	0.915	0.89	0.842	0.811	0.801
10 µM, coculture fibroblast: HADF	0.865	0.85	0.792	0.792	0.7526	0.741	0.692	0.669	0.609
10 µM, coculture fibroblast: HCFa	0.80488	0.752	0.718	0.708	0.679	0.696	0.656	0.63	0.576
10 µM, coculture fibroblast: HCPF	0.8415	0.776	0.942	0.93	0.866	0.838	0.764	0.748	0.734
10 µM, coculture fibroblast: HHSteC	0.845	0.872	0.877	0.8948	0.899	0.92	0.864	0.839	0.781
10 µM, coculture fibroblast: HMF	0.824	0.731	0.895	0.922	0.877	0.865	0.81	0.791	0.757
10 µM, coculture fibroblast: HPFa	0.867	0.907	0.939	0.805	0.849	0.831	0.841	0.894	0.898
10 µM, coculture fibroblast: HUF	0.759	0.793	0.826	0.889	0.875	0.9	0.86	0.811	0.79
10 µM, coculture fibroblast: Hs5	0.868	0.975	0.917	0.879	0.807	0.755	0.696	0.653	0.668
10 µM, coculture fibroblast: Hs27A	0.771	0.8023	0.7608	0.8112	0.7736	0.8009	0.7849	0.769	0.709
10 µM, coculture fibroblast: Hs343T	0.8724	0.816	0.9597	0.9022	0.824	0.799	0.755	0.748	0.716
10 µM, coculture fibroblast: WS1	0.9084	0.811	0.754	0.647	0.566	0.53	0.493	0.468	0.453
100 µM, coculture fibroblast: C12385	0.857	0.765	0.565	0.497	0.375	0.3591	0.3607	0.391	0.417
100 µM, coculture fibroblast: H6013	0.872	0.98405	0.909	0.856	0.73	0.617	0.5	0.488	0.479
100 µM, coculture fibroblast: H6019	0.917	0.701	0.596	0.545	0.43	0.33	0.269	0.259	0.286
100 µM, coculture fibroblast: H6076	0.898	0.728	0.694	0.647	0.51	0.451	0.453	0.483	0.599
100 µM, coculture fibroblast: H6231	0.82	0.785	0.792	0.854	0.799	0.805	0.778	0.76	0.765
100 µM, coculture fibroblast: HADF	0.958	0.834	0.724	0.68	0.564	0.456	0.373	0.398	0.3849
100 µM, coculture fibroblast: HCFa	0.899	0.825	0.731	0.681	0.567	0.485	0.398	0.373	0.371
100 µM, coculture fibroblast: HCPF	0.882	0.972	0.9193	0.9252	0.8563	0.839	0.795	0.78	0.768
100 µM, coculture fibroblast: HHSteC	0.956	0.878	0.769	0.708	0.598	0.504	0.374	0.343	0.335
100 µM, coculture fibroblast: HMF	0.8538	0.846	0.949	0.92	0.861	0.849	0.787	0.764	0.734
100 µM, coculture fibroblast: HPFa	0.925	0.822	0.871	0.774	0.682	0.607	0.499	0.447	0.385
100 µM, coculture fibroblast: HUF	0.954	0.829	0.65	0.551	0.41	0.318	0.288	0.315	0.337
100 µM, coculture fibroblast: Hs5	0.802	0.744	0.675	0.607	0.508	0.412	0.363	0.375	0.451
100 µM, coculture fibroblast: Hs27A	0.848	0.802	0.808	0.791	0.697	0.626	0.504	0.465	0.437
100 µM, coculture fibroblast: Hs343T	0.8955	0.918	0.956	0.952	0.886	0.874	0.834	0.827	0.8171
100 µM, coculture fibroblast: WS1	0.915	0.797	0.695	0.625	0.47	0.351	0.326	0.329	0.365

The reference is the same well before dosing, and untreated signal decays as well.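 Fibroblast labels name human fibroblasts: mostly primary ones from tissues such as uterus (C12385, HUF), lung (H6013), bone (Hs27A), adrenal (HADF) and skin (WS1), plus mammary HMF and breast cancer-associated Hs343T. The cancer cells are basal-like or mesenchymal-like triple-negative breast cancer lines. The paper calls a changed response a hit when it shifts by more than 3x the replicate standard deviation. The tissue of the other fibroblasts is not given here.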
